From US20180311220A1, “TREATMENT OF CANCERS WITH ACQUIRED RESISTANCE TO KIT INHIBITORS” (Bayer HealthCare LLC, priority 2007, published 2018)
pIC50: −log10 of the molar value.

Experiments:
Type in all cases: cell-based, murine
[1] = test system: Ba/F3 cells expressing human c-KIT exon 11 deletion + T6701; experiment: Ba/F3 cell proliferation assay (CellTiter-Glo), c-KIT exon 11 deletion + T6701; conditions: BaF3; Exon 11 +T6701; n ≥ 3; 72 h incubation; read-out: Average IC50 for c-KIT-expressing Ba/F3 cellular proliferation, Exon 11 +T6701
Description: (§1) The cDNA encoding full length human c-KIT with a deletion in exon 11 that removed amino acid residues 557-558 was ligated into the mammalian expression vector pClneo (Promega). Imatinib (Gleevec) -resistant variants of the KIT exon 11 deletion mutant were generated. All mutations were confirmed by DNA sequencing.
(§2) The expression vectors encoding the c-KIT exon 11 mutant or its Imatinib (Gleevec) -resistant mutant variants were transfected into Ba/F3 cells by electroporation. Selective pressure was applied to the transfected cells by removing IL-3 from the culture medium. After IL-independent populations, further selective pressure was applied by also growing the cells in the presence of 1 mg/mL G418. […] The stable pools were further characterized by sequencing genomic DNA to confirm the presence of the transfected c-KIT cDNA.
(§3) This assay utilizes cellular ATP as a marker for cell proliferation/viability. […] The cells were then incubated on a shaker for 5 minutes at room temperature, and luminescence was measured on a Victor 5 (Perkin Elmer) spectrophotometer.
(§4) Growth inhibition was measured by comparing luminescence signal from treated vs. untreated cells in assay plates, and the IC50 analysis of cell proliferation inhibition by compounds was analyzed using Analyze 5 in-house software. The IC50 values are mean values calculated from at least three experiments.

[2] = test system: Ba/F3 cells expressing human c-KIT exon 11 deletion + Y823D; experiment: Ba/F3 cell proliferation assay (CellTiter-Glo), c-KIT exon 11 deletion + Y823D; conditions: BaF3; Exon 11 + Y823D; n ≥ 3; 72 h incubation; read-out: Average IC50 for c-KIT-expressing Ba/F3 cellular proliferation, Exon 11 + Y823D
Description: as §1, §2, §3, §4

[3] = test system: Ba/F3 cells expressing human c-KIT exon 11 deletion + N822K; experiment: Ba/F3 cell proliferation assay (CellTiter-Glo), c-KIT exon 11 deletion + N822K; conditions: BaF3; Exon 11 + N822K; n ≥ 3; 72 h incubation; read-out: Average IC50 for c-KIT-expressing Ba/F3 cellular proliferation, Exon 11 + N822K
Description: as §1, §2, §3, §4

[4] = test system: Ba/F3 cells expressing human c-KIT exon 11 deletion + D816G; experiment: Ba/F3 cell proliferation assay (CellTiter-Glo), c-KIT exon 11 deletion + D816G; conditions: BaF3; Exon 11 + D816G; n ≥ 3; 72 h incubation; read-out: Average IC50 for c-KIT-expressing Ba/F3 cellular proliferation, Exon 11 + D816G
Description: as §1, §2, §3, §4

[5] = test system: Ba/F3 cells expressing human c-KIT with exon 11 deletion (residues 557-558); experiment: Ba/F3 cell proliferation assay (CellTiter-Glo), c-KIT exon 11 deletion; conditions: BaF3, n ≥ 3, 72 h incubation, read-out: Average IC50 for c-KIT-expressing Ba/F3 cellular proliferation, Exon 11 Deletion
Description: as §1, §2, §3, §4

[6] = test system: Ba/F3 cells expressing human c-KIT exon 11 deletion + V654A; experiment: Ba/F3 cell proliferation assay (CellTiter-Glo), c-KIT exon 11 deletion + V654A; conditions: BaF3; Exon 11 + V654A; n ≥ 3; 72 h incubation; read-out: Average IC50 for c-KIT-expressing Ba/F3 cellular proliferation, Eson 11 + V654A
Description: as §1, §2, §3, §4

pIC50 [1]: < 5.00
pIC50 [2]: 6.53
pIC50 [3]: 6.66
pIC50 [4]: 7.06
pIC50 [5]: 8.30
pIC50 [6]: 6.77
SMILES: Cc1ccc(NC(=O)c2ccc(CN3CCN(C)CC3)cc2)cc1Nc1nccc(-c2cccnc2)n1 [Imatinib, imatinib]
